Library screening results

The values are deposited in ChEMBL (CHEMBL3988442, “University of Dundee, Small-Polar-MMV Screening Library” (2021)).

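Whole-cell assay for inhibitors of Mycobacterium tuberculosis growth, labelled Cornell in the record; the read-out is not stated. The concentration is filed as 10 mM, unlikely as a test dose, so the dose is not known. The record gives no direction; compounds strong in two other growth screens of this library score well above the rest, so higher reads as stronger inhibition. Size under these conditions: about 53,000 compounds, about 900 of them at 50% or above in at least one test.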

Each number is a percent effect as filed. How 0% and 100% were set is not recorded. Most values in the screen are low, and negative values occur. Compounds were drawn at random from those tested, without regard to their results.

| structure | percent effect |
|---|---|
| `CCC(C)Oc1ccc(CNCCNS(C)(=O)=O)cc1Cl` (stereo not shown) | 24.96% |
| `CCCN(Cc1ccccn1)Cc1ccccc1OC` | 21.81% |
| `O=C(c1ccco1)N(CC(F)(F)F)C1CCCOC1` (stereo not shown) | -46.27% |
| `CC(C)OCCN1CCN(c2ccc(CN(C)C)cn2)CC1` | -21.44% |
| `CCc1nc(CNC(=O)Nc2ccc(C(=O)NC)cc2C)cs1` | -14.42% |
| `Cc1nc(N2C[C@@H](CN3CCCCC3)[C@@H](CO)C2)c2sccc2n1` | 4.009% |
| `Fc1ccc2[nH]c(C3CCCN3Cc3c[nH]cn3)nc2c1` (stereo not shown) | -4.509% |
| `Cc1cccc(-n2ncc3c2CCCC3NCc2cccc(O)c2)c1C` (stereo not shown) | 38.42% |
| `CN(C)CCNC(=O)c1nc2c(o1)CN(c1ncccn1)C2` | 18.96% |
| `CCN(c1ccsc1C(=O)N1CCSCC1)S(=O)(=O)c1ccc(Cl)cc1` | 6.727% |
| `CN1CCOC(CNCCOc2ccc(C#N)cc2)C1` (stereo not shown) | 3.153% |
| `CCc1ccc(CN2CCC(CNC(=O)c3ccc(C)nc3)C2)nc1` (stereo not shown) | -2.258% |
| `COc1ccc2nc(C3CC3)cc(C(=O)NCC(=O)N(C)C)c2c1` | 31.5% |
| `CN(C)Cc1nn(C)c2c1CCN(C(=O)c1cccnc1)C2` | 2.738% |
| `Cc1cc(C)c(C#N)c(N2CCC(Cc3ccccc3)CC2)n1` | 20.87% |
| `Cc1noc(C)c1CNCC1COCc2c(-c3ccoc3)nnn2C1.O=C(O)C(F)(F)F` (stereo not shown) | -9.211% |
| `CCC(C)NC(=O)Cn1c(Nc2cc(C)cc(C)c2)nc(C)cc1=O` (stereo not shown) | 4.899% |
| `COc1ccc2c(c1)OCC(CNC(=O)c1cc[nH]c1C)C2` (stereo not shown) | -20.82% |
| `Cc1noc(NC(=O)c2ccc(Br)o2)n1` | 16.32% |
| `COCc1ncn2c1CN(S(=O)(=O)c1cccs1)CCC2` | 4.382% |
| `O=C(O)C(F)(F)F.[H][C@]12CC[C@@]3(N=C(C)N(CCOC)C3=O)[C@@]1([H])CN(Cc1ccccc1F)C2` | 12.3% |
| `Cc1cccc(CN2CCCC2c2cccc(CCC(=O)O)n2)c1` (stereo not shown) | -38.18% |
| `CC(C)c1ccc2c(c1)CCCN2C(=O)CN(C)S(C)(=O)=O` | 14.8% |
| `CC(C)NC(=O)C(C)S(=O)(=O)c1cc2c(cc1Cl)OCCO2` (stereo not shown) | -13.28% |
| `Cc1nc(N2CCOCC2)nc(C)c1NC(=O)Cc1ccc(Cl)cc1` | -26.81% |
| `Cc1cnn(CC2CN(CCCS(C)(=O)=O)CCO2)c1` (stereo not shown) | -28.35% |
| `COCc1cccc(NC(C)C(=O)N(C)Cc2cccc(F)c2)c1` (stereo not shown) | -3.179% |
| `COCCOCC(=O)NCc1ccc(N(C)C)nc1` | -13.46% |
| `NCCn1cc(C(=O)N2CCNC(=O)C2c2cccc(F)c2)nn1` (stereo not shown) | 21.79% |
| `O=C(NCCC1CN(Cc2cccnc2)CCO1)c1ccsc1` (stereo not shown) | -25.68% |
| `CCCOc1cc(CNC(=O)Nc2cccnc2N2CCCC2)ccn1` | 7.482% |
| `COc1ccc(N2Cc3nc(N)ncc3C2=O)cc1Cl` | 1.063% |
| `CCc1noc(CN2CCC(C(=O)Nc3cnn(CC)c3)CC2)n1` | -49.81% |
| `NC(=O)c1cnn2c1NCC(CNCC1(c3ccccc3)CCC1)C2` (stereo not shown) | 9.892% |
| `CN(Cc1cn2ccccc2n1)C1CCCN(c2cccnn2)C1` (stereo not shown) | -17.53% |
| `COc1cccc(CNC(=O)C(c2cccc(F)c2)N2CCOCC2)c1` (stereo not shown) | 3.979% |
| `CCOc1cccc2c1OCC(C(=O)NS(=O)(=O)c1ccc(Br)s1)=C2` | -17.73% |
| `CC1CN(C)c2ccccc2CN1C(=O)c1ccc[nH]1` (stereo not shown) | -24.09% |
| `[H][C@@]12CCCO[C@]1([H])[C@H](NC(=O)CC1CC1)CN(C(=O)c1ccoc1)C2` | -3.218% |
| `CC(=O)c1c(C)nn(CC(=O)Nc2ccc(F)cc2)c1C` | -30.72% |
| `CCCn1cnnc1-c1nc2c([nH]1)CC(c1ccc(Cl)cc1)CNC2=O` (stereo not shown) | 5.565% |
| `NC(=O)c1c(SCCN2CCOCC2)sc2c(O)cc(=O)[nH]c12` | 29.79% |
| `Fc1ccc(CNCCn2cccn2)cc1F` | -21.78% |
| `CN(C)C1CN(C(=O)Nc2cccc(OC(F)F)c2)C1` | 23.96% |
| `NC(=O)CCN(C(=O)c1cccc2c1OCO2)c1ccccc1` | -2.298% |
| `O=C(O)C(F)(F)F.O=C(O)C(F)(F)F.c1cc(CN2CCc3ncc(CN4CCCCC4)n3CC2)cs1` | -39.81% |
| `O=C(c1cc(C2CC2)on1)N1CCC(Oc2ncccc2Br)CC1` | 83.65% |
| `COc1ccc(C)cc1Nc1nc2c(C)nn(C)c2c(=O)n1C` | 7.527% |
| `Cc1nc2cc(OCc3nc(C(=O)NC(CO)CO)co3)ccc2s1` | -8.173% |
| `O=C(Nc1ccccc1OC1CCOC1)c1cc[nH]n1` (stereo not shown) | -18.84% |
| `COc1c(CNC2(c3noc(C)n3)CCC2)c(C)nn1C.Cl` | -27.41% |
| `Cn1cccc1-c1cc(C(=O)N2CC(c3cccnc3)C2)[nH]n1` | 27.65% |
| `O=C(CCc1cccs1)NCC1CCCN1c1cccnn1` (stereo not shown) | 17.41% |
| `COCC1COCCC12CCN(S(=O)(=O)c1ccccc1C)CC2` (stereo not shown) | 8.499% |
| `C=C(C)COc1cccc(CNC(COC)c2ccnn2C)c1` (stereo not shown) | 15.49% |
| `CC(C)NC(=O)CN(C)CC(=O)/N=c1/cc[nH]n1C(C)C1CC1` (stereo not shown) | -9.244% |
| `CN(CC(=O)NC(Cc1ccsc1)c1cccnc1)Cc1ccccn1.Cl` (stereo not shown) | -48.97% |
| `COCCCNC(=O)N1CCCC(c2nncn2C)C1` (stereo not shown) | 5.602% |
| `CCn1cncc1CNc1ccc(-c2nc(CC(C)C)no2)cn1` | 11.21% |
| `COc1ccc(S(=O)(=O)Cc2cc(C)on2)cc1` | -3.385% |
| `[H][C@@]12CCCO[C@]1([H])[C@@H](N(C)Cc1cncnc1)CN2C(=O)c1ccc[nH]1` | 0.3956% |
| `CSCc1ccc(CNCCN2CCOCC2)o1` | 25.48% |
| `c1nc2c(c(NC3CCc4ncnn4C3)n1)CCC2` (stereo not shown) | 3.299% |
| `O=C(O)C(F)(F)F.O=C(O)C(F)(F)F.[H][C@@]12OCCN(Cc3ccc(F)cc3)[C@@]1([H])CC[C@H]2OCCN1CCCC1` | 5.205% |
| `OCCN1CCOC2(CCCN(c3ncccn3)C2)C1` (stereo not shown) | 4.161% |
| `Cc1cc(CNC(=O)CCc2c(C)nc3cc(O)nn3c2C)no1` | -44.28% |
| `O=C(Nc1cccc(CN2CCOC2=O)c1)N1CCCC1` | 2.349% |
| `C[C@@H]1CN(Cc2ccccc2)CCN1C(=O)NCc1nccs1` | 12.5% |

Once more, the final 7:

For CSCc1ccc(CNCCN2CCOCC2)o1 the result was 25.48%.
For c1nc2c(c(NC3CCc4ncnn4C3)n1)CCC2 (stereo not shown) the result was 3.299%.
For O=C(O)C(F)(F)F.O=C(O)C(F)(F)F.[H][C@@]12OCCN(Cc3ccc(F)cc3)[C@@]1([H])CC[C@H]2OCCN1CCCC1 the result was 5.205%.
For OCCN1CCOC2(CCCN(c3ncccn3)C2)C1 (stereo not shown) the result was 4.161%.
For Cc1cc(CNC(=O)CCc2c(C)nc3cc(O)nn3c2C)no1 the result was -44.28%.
For O=C(Nc1cccc(CN2CCOC2=O)c1)N1CCCC1 the result was 2.349%.
For C[C@@H]1CN(Cc2ccccc2)CCN1C(=O)NCc1nccs1 the result was 12.5%.